PubChem BioAssay AID686943 | Drosophila RNAi Screening Center – 2013
Screen: 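Knockdowns that increase or decrease active ERK after insulin receptor stimulation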 (primary screen). Cells: Drosophila S2R+ haemocyte-like cells expressing YFP-tagged ERK (Rolled). Knock-down reagent: long dsRNA against Drosophila genes. Conditions: insulin stimulation versus unstimulated cells; dose and duration not given. Read-out: 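Per-plate z-scores of phospho-ERK immunostaining normalised to YFP-tagged ERK, measured with and without insulin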. Direction: replicate 1, z-score of dpERK with insulin: higher = more active ERK per ERK-YFP after insulin.
The deposit covers about 23,000 reagents; below is a random part of those with a known target gene and a result. 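Extra replicates exist only for a retested subset of genes; insulin dose and duration not given; both raised and lowered dpERK matter.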 The numbers tell different reagents against one gene apart. A plus sign joins genes that one reagent is predicted to hit. Not all columns of the deposit are shown. Not stated in the record: the amount of reagent, the time to read-out.

target gene | dsRNA no. | replicate 1, z-score of dpERK with insulin
CR31054 (GeneID 12798280) | 1 | 1.98
CG17224 (GeneID 33510) | 1 | -0.09
Ets21C (GeneID 33229) | 1 | -0.26
CG1824 (GeneID 32208) | 1 | 0.19
Lam (GeneID 33782) | 1 | -1.64
Npc2e (GeneID 326136) | 1 | 0.97
Npc2e (GeneID 326136) | 2 | 0.24
CG32983 (GeneID 50434) | 1 | 0.75
CG9083 + Tpc2 | 1 | 0.48
Ube4A (GeneID 33932) | 1 | 0.48
CG30178 (GeneID 246501) | 1 | -0.33
inv (GeneID 36239) | 1 | -0.24
Acam + CG17770 | 1 | 0.16
Acam + CG17770 | 2 | -0.07
CG7737 (GeneID 36174) | 1 | 0.39
Cul1 (GeneID 35742) | 1 | 1.26
CG31636 (GeneID 318865) | 1 | -0.67
Sf3b1 (GeneID 33235) | 1 | -0.66
Dup99B (GeneID 2768691) | 1 | 0.3
Phs (GeneID 39697) | 1 | -1.29

Next part; the last 2 above are carried over.
target gene | dsRNA no. | replicate 1, z-score of dpERK with insulin
Dup99B (GeneID 2768691) | 1 | 0.3
Phs (GeneID 39697) | 1 | -1.29
CG6424 (GeneID 37012) | 1 | 1.13
alpha-Man-IIb (GeneID 41913) | 1 | -0.63
JhI-26 (GeneID 36819) | 1 | 0.23
Mal-A3 (GeneID 35826) | 1 | 0.42
CG43397 + CG12902 | 1 | -0.13
Oseg2 (GeneID 38282) | 1 | 0.46
oaf (GeneID 33435) | 1 | -0.53
Aef1 (GeneID 40370) | 1 | -0.07
pix (GeneID 39027) | 1 | 0.47
CG14043 (GeneID 33714) | 1 | -0.78
Gapdh1 (GeneID 35728) | 1 | -1.05
CG9270 (GeneID 35366) | 1 | 0.48
amd (GeneID 35188) | 1 | 0.64
amd (GeneID 35188) | 2 | -0.1
mav (GeneID 43804) | 1 | -0.26
Kank (GeneID 36668) | 1 | 0.49
Kank (GeneID 36668) | 2 | 0.28
Abca3 (GeneID 33103) | 1 | 0.56
Appl (GeneID 31002) | 1 | 0.49
